Laboratory results taken from patent US12115180B2 (Board of Supervisors of Louisiana State University and …, priority 2020, dated 2024).

Tested on: neonatal rat cardiomyocytes (NRCs)
Assay: Confocal microscopy of DOX distribution in cardiomyocytes (24 h)
Type: cell-based, Sprague Dawley rat

COc1cccc2c1C(=O)c1c(O)c3c(c(O)c1C2=O)C[C@@](O)(C(=O)CO)C[C@@H]3O[C@H]1C[C@H](N)[C@H](O)[C@H](C)O1 [con-DOX, doxorubicin]
DOX localization in cardiomyocytes at high doses (25 μM): Cytosolic localization | DOX localization in cardiomyocytes (5, 10, and 25 μM): completely localized into the nucleus
